Record: PubChem BioAssay AID504764 (Drosophila RNAi Screening Center, 2011)
Aim: 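Knock-downs that raise or lower a Notch target reporter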 (primary screen). Cell system: Drosophila Kc167 cells. Reagent: long dsRNA against Drosophila genes. Duration: about 5 days (4 days dsRNA, then 24 h after transfection). Challenge: transfection of constitutively active membrane-tethered Notch lacking the extracellular domain, read 24 h later. Detection: 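Light from a Notch-responsive E(spl)m3 luciferase reporter under active Notch, with control-promoter and no-Notch reporter wells to normalise; raw counts from paired wells a and b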. Direction: induced reporter light, run 1, well a and induced reporter light, run 1, well b: higher = more light from the Notch target reporter with active Notch; control promoter light, run 1, well a and control promoter light, run 1, well b: higher = more light from the viral control promoter (cell number, transfection, viability); uninduced reporter light, run 1, well a: higher = more light from the Notch target reporter without active Notch. Hit rule: 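Hit if the duplicate-averaged log2 ratio of induced to control-promoter light gives a plate-wise z beyond ±2, or induced to uninduced beyond ±1.8; weak-control or discordant-duplicate wells dropped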. Calls: active = modifier hit (raised or lowered Notch signal); inactive = not a hit.
The screen tested about 22,000 reagents; this is an unselected part of those with a known target gene and a result. Of all reagents, 403 (1.9%) were called active. 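Unnormalised raw counts per well; ratio z-scores behind the hit calls and whether each hit raises or lowers signal are not deposited.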 A plus sign joins genes that one reagent is predicted to hit. The record does not give: the amount of reagent.

Against laf (labial associated factor) [DRSC12246] the deposit lists induced reporter light, run 1, well a = 1.01e5; induced reporter light, run 1, well b = 86595; control promoter light, run 1, well a = 1.42e5; control promoter light, run 1, well b = 1.32e5; uninduced reporter light, run 1, well a = 9190; inactive.
Against ckd (cracked) [DRSC08418], the values are induced reporter light, run 1, well a = 95685; induced reporter light, run 1, well b = 1.19e5; control promoter light, run 1, well a = 1.68e5; control promoter light, run 1, well b = 1.76e5; uninduced reporter light, run 1, well a = 7032; inactive.
After knock-down of CG5810 [DRSC15880], the record shows induced reporter light, run 1, well a = 1.78e5; induced reporter light, run 1, well b = 1.67e5; control promoter light, run 1, well a = 2.05e5; control promoter light, run 1, well b = 2.10e5; uninduced reporter light, run 1, well a = 15950; inactive.
After knock-down of CG7236 [DRSC03037], the record shows induced reporter light, run 1, well a = 91950; induced reporter light, run 1, well b = 83100; control promoter light, run 1, well a = 1.16e5; control promoter light, run 1, well b = 98165; uninduced reporter light, run 1, well a = 5350; inactive.
For CG9922 [DRSC16579], the values are induced reporter light, run 1, well a = 2.01e5; induced reporter light, run 1, well b = 2.14e5; control promoter light, run 1, well a = 1.43e5; control promoter light, run 1, well b = 1.84e5; uninduced reporter light, run 1, well a = 15128; inactive.
For CG31601 [DRSC03678], the values are induced reporter light, run 1, well a = 85160; induced reporter light, run 1, well b = 86665; control promoter light, run 1, well a = 82545; control promoter light, run 1, well b = 76945; uninduced reporter light, run 1, well a = 8790; inactive.
btsz (bitesize) [DRSC14982] showed induced reporter light, run 1, well a = 30460; induced reporter light, run 1, well b = 30300; control promoter light, run 1, well a = 25245; control promoter light, run 1, well b = 22850; uninduced reporter light, run 1, well a = 8595; inactive.
btsz (bitesize) [DRSC16231] gave induced reporter light, run 1, well a = 2.03e5; induced reporter light, run 1, well b = 2.19e5; control promoter light, run 1, well a = 2.43e5; control promoter light, run 1, well b = 2.19e5; uninduced reporter light, run 1, well a = 17420; inactive.

Sorted by “induced reporter light, run 1, well a” (high to low): 2 of the entries above
CG31601 [DRSC03678] — induced reporter light, run 1, well a = 85160; induced reporter light, run 1, well b = 86665; control promoter light, run 1, well a = 82545; control promoter light, run 1, well b = 76945; uninduced reporter light, run 1, well a = 8790; outcome = inactive
btsz (bitesize) [DRSC14982] — induced reporter light, run 1, well a = 30460; induced reporter light, run 1, well b = 30300; control promoter light, run 1, well a = 25245; control promoter light, run 1, well b = 22850; uninduced reporter light, run 1, well a = 8595; outcome = inactive

The results go on.
drongo [DRSC00814] scored induced reporter light, run 1, well a = 83160; induced reporter light, run 1, well b = 1.14e5; control promoter light, run 1, well a = 60585; control promoter light, run 1, well b = 71755; uninduced reporter light, run 1, well a = 10892; inactive.
After knock-down of IntS3 (Integrator 3) [DRSC21215] the results were induced reporter light, run 1, well a = 75450; induced reporter light, run 1, well b = 67355; control promoter light, run 1, well a = 57395; control promoter light, run 1, well b = 63110; uninduced reporter light, run 1, well a = 10790; active.
Knock-down of CG10470 [DRSC02061] came out at: induced reporter light, run 1, well a = 73965; induced reporter light, run 1, well b = 39495; control promoter light, run 1, well a = 45350; control promoter light, run 1, well b = 48280; uninduced reporter light, run 1, well a = 3105; inactive.
Knock-down of CG6709 + Hez [DRSC10165] gave: induced reporter light, run 1, well a = 2.00e5; induced reporter light, run 1, well b = 1.62e5; control promoter light, run 1, well a = 2.55e5; control promoter light, run 1, well b = 2.11e5; uninduced reporter light, run 1, well a = 10255; inactive.
CG6709 + Hez [DRSC10698] gave induced reporter light, run 1, well a = 1.98e5; induced reporter light, run 1, well b = 1.76e5; control promoter light, run 1, well a = 3.40e5; control promoter light, run 1, well b = 2.85e5; uninduced reporter light, run 1, well a = 9990; inactive.
